For the assay, the system named is Lewis lung carcinoma i.m., BDF1 mice, T/C %. In words: NCI In Vivo Anticancer Drug Screen. Data for tumor model Lewis Lung Carcinoma (intramuscular) in B6D2F1 (BDF1) mice. As for the experimental part: The antitumor activity of compounds was measured in mice bearing transplantable tumors. Survival or tumor size were measured and the results are expressed as the measurement made in the treated group (T) divided by the measurement made in the vehicle treated control group (C). The tumor model used in this assay is Lewis Lung Carcinoma (intramuscular) in B6D2F1 (BDF1) mice

The list does not hold the whole screen: its compounds were picked by chemical class. Not every dose and run of a compound is shown. T/C gives the treated animals as a percentage of the vehicle group. Schedule codes are those of the source, taken here to give the interval after Q, in days (D) or hours (H), and the number of doses after X. Some T/C values carry the count of animals alive at the toxicity check; where neither a count nor a note follows, no animal had died by that day. Some doses have a count of surviving animals in place of a T/C: the source holds a T/C of zero for them, seemingly a mark for toxic or unscored doses. Some doses without a T/C left all or most animals alive at the check, yet need not have been tolerated: survival well below the control is almost never listed, so the zero probably covers shortened survival too. Counts of survivors are from the toxicity check (mostly the fifth day) where no day follows; animals may have died later. Survivors were counted at the toxicity check; its day is shown where the source gives one, and later deaths do not show. For survival time, the PubChem record calls one and a half times the control and up active, and a quarter to a half above the control has no call in these data; cut-offs in other NCI protocols can differ. Some T/C values carry the count of animals alive at the toxicity check (mostly the fifth day); where neither a count nor a note follows, no animal had died by that day.

Turning to `NP(=O)(O)N(CCCl)CCCl`, the T/C reads like this: (T/C endpoint: mean tumor weight (est.), dose: 12.5 mg/kg/injection, schedule: Q01DX011 (ip), vehicle: water, evaluated on day 12, higher T/C = larger tumour) 74 % of control; (T/C endpoint: mean tumor weight (est.), dose: 25.0 mg/kg/injection, schedule: Q01DX011 (ip), vehicle: water, evaluated on day 12, higher T/C = larger tumour) 57 % of control; (T/C endpoint: mean tumor weight (est.), dose: 25.0 mg/kg/injection, schedule: Q04DX003 (ip), vehicle: saline, evaluated on day 12, higher T/C = larger tumour) 70 % of control; (T/C endpoint: mean tumor weight (est.), dose: 50.0 mg/kg/injection, schedule: Q01DX011 (ip), vehicle: water, evaluated on day 12, higher T/C = larger tumour) 50 % of control [7 of 8 alive]; (T/C endpoint: mean tumor weight (est.), dose: 50.0 mg/kg/injection, schedule: Q04DX003 (ip), vehicle: saline, evaluated on day 12, higher T/C = larger tumour) 74 % of control; (T/C endpoint: mean tumor weight (est.), dose: 100.0 mg/kg/injection, schedule: Q04DX003 (ip), vehicle: saline, evaluated on day 12, higher T/C = larger tumour) 59 % of control. Further, the T/C (T/C endpoint: mean tumor weight (est.), dose: 200.0 mg/kg/injection, schedule: Q04DX003 (ip), vehicle: saline, evaluated on day 12, higher T/C = larger tumour) is 31 % of control [6 of 8 alive]; the T/C (T/C endpoint: mean tumor weight, dose: 25.0 mg/kg/injection, schedule: Q04DX003 (ip), vehicle: saline, evaluated on day 12, higher T/C = larger tumour) was 86 % of control; the T/C (T/C endpoint: mean tumor weight, dose: 50.0 mg/kg/injection, schedule: Q04DX003 (ip), vehicle: saline, evaluated on day 12, higher T/C = larger tumour) was 67 % of control; the T/C (T/C endpoint: mean tumor weight, dose: 100.0 mg/kg/injection, schedule: Q04DX003 (ip), vehicle: saline, evaluated on day 12, higher T/C = larger tumour) was 38 % of control; the T/C (T/C endpoint: median survival time, dose: 12.5 mg/kg/injection, schedule: Q01DX011 (ip), vehicle: water, higher T/C = longer survival) is 139 % of control; the T/C (T/C endpoint: median survival time, dose: 25.0 mg/kg/injection, schedule: Q01DX011 (ip), vehicle: water, higher T/C = longer survival) was 122 % of control. In addition, the T/C is, setting by setting: (T/C endpoint: median survival time, dose: 25.0 mg/kg/injection, schedule: Q04DX003 (ip), vehicle: saline, higher T/C = longer survival) 93 % of control; (T/C endpoint: median survival time, dose: 50.0 mg/kg/injection, schedule: Q01DX011 (ip), vehicle: water, higher T/C = longer survival) 108 % of control [7 of 8 alive]; (T/C endpoint: median survival time, dose: 50.0 mg/kg/injection, schedule: Q04DX003 (ip), vehicle: saline, higher T/C = longer survival) 93 % of control; (T/C endpoint: median survival time, dose: 100.0 mg/kg/injection, schedule: Q04DX003 (ip), vehicle: saline, higher T/C = longer survival) 98 % of control. Besides, the survivor count (T/C endpoint: mean tumor weight (est.), dose: 100.0 mg/kg/injection, schedule: Q01DX011 (ip), vehicle: water, higher T/C = larger tumour) is given as 5 of 8; the survivor count (T/C endpoint: mean tumor weight, dose: 200.0 mg/kg/injection, schedule: Q04DX003 (ip), vehicle: saline, higher T/C = larger tumour) was 1 of 8; the survivor count (T/C endpoint: median survival time, dose: 100.0 mg/kg/injection, schedule: Q01DX011 (ip), vehicle: water, higher T/C = longer survival) is on record as 5 of 8; the survivor count (T/C endpoint: median survival time, dose: 200.0 mg/kg/injection, schedule: Q04DX003 (ip), vehicle: saline, higher T/C = longer survival) was 6 of 8.

Values taken from PubChem BioAssay AID272 (DTP/NCI, 2004).
